Data as given in US10213482B2, “Methods of treating chronic inflammatory diseases” (Centre National de la Recherche Scientifique, priority 2014, dated 2019).
“And” between values parts separate entries of the source, which are not always exact repeats. Equal values may be shown once. Not every detail of the peptide structures is certain; ends, links or a residue may be inferred. Square brackets hold non-standard residues; d marks the D form. Peptide text beside a SMILES is read from it. pS = N[C@@H](COP(=O)(O)O)C(=O)O

How the values were obtained:
DBA/1 mice = assay: Collagen-induced arthritis (CIA) mouse model, ex vivo T splenocyte proliferation with CII; type: in vivo
Recombinant bovine HSC70 = biological target: T1, Recombinant bovine HSC70 (Bos taurus, UniProt P19120); assay: BIAcore binding of P140 peptides to HSC70
T1 construct: purchased Stressgen
Description: BIAcore 3000 system (Biacore AB) was used to evaluate the binding of P140 peptides to HSC70 protein (Page et al., 2009, and 2011). Sensor chip CMS, surfactant P20, amine coupling kit containing N-hydroxysuccinimide (NHS) and N-ethyl-N′-dimethylaminopropyl carbodiimide (EDC), 2-(2-pyridinyldithio)ethaneamine (PDEA) and ethanolamine were from Biacore AB. Biosensor assays were performed with HBS-EP buffer as running buffer (10 mM HEPES, 150 mM NaCl, 3 mM EDTA, 0.005% surfactant P20, pH 7.4). The compounds were diluted in the running buffer. The sensor chip surface was regenerated after each experiment by injecting 10 μL of 10 mM HCl. Recombinant bovine HSC70 (Stressgen) was immobilized on flow cells of a CMS sensor chip through its thiol groups using 35 μL PDEA in 50 mM borate buffer, pH 8.3 on the NHS/EDC-activated matrix. Then, 35 μL of HSC70 (100 μg/mL in formate buffer, pH 4.3) were injected until a response of 13,000 response units (RU) corresponding to 13 ng/mm^2 of HSC70 was immobilized. Twenty μL of a 50 mM cysteine/1 M NaCl solution was used to saturate unoccupied sites on the chip. The direct binding measurement of P140 peptides to HSC70 was carried out at 25° C. with a constant flow rate of 20 μL/min. P140 peptide and analogues were injected in the flux at different concentrations for 3 min, followed by a dissociation phase of 3 min. The kinetic parameters were calculated using the BIAeval 3.1 software on a personal computer. Analysis was performed using the simple 1:1 Langmuir binding model. The specific binding profiles were obtained after subtracting the response signal from the control empty channel and from blank-buffer injection. The fitting to each model was judged by the χ^2 value and randomness of residue distribution compared to the theoretical model.

MRL/lpr mice [1] = assay: Survival analysis in MRL/lpr mice; type: in vivo, mouse; details: female MRL/lpr mice, peptide intravenously from five weeks of age; NaCl=25 weeks
C57BL/6 mice = assay: DSS-induced colonic inflammation model; type: in vivo, mouse
Raji cells = assay: Cellular uptake of fluorescent P140 in Raji cells (flow cytometry); type: cell-based, human; details: fluorescent P140 in 10% trehalose compared with 5.4% mannitol
Balb/c mice = assay: 31-day HDM-induced asthma model, airway response to methacholine (Flexivent); type: in vivo, mouse; details: for Crs, first value, individual mice / Crs, second value, individual mice / Ers, first value, individual mice / Ers, second value, individual mice / Rrs, first value, individual mice / Rrs, second value, individual mice: sub-column not headed
MRL/lpr mice [2] = assay: Gougerot-Sjögren syndrome model, salivary glands of MRL/lpr mice; type: in vivo, mouse
[3] = P140 i.v. 4 mg/kg day 25, HDM challenge
[4] = P140 i.v. 4 mg/kg day 25, saline challenge (chronic asthma)
[5] = chronic asthma (saline-challenged), methacholine 50 mg/ml, p<0.05
[6] = 5 days after one single iv injection, flow cytometry

## CC[C@H](C)[C@H](NC(=O)[C@H](Cc1ccccc1)NC(=O)[C@H](C)NC(=O)[C@H](Cc1ccc(O)cc1)NC(=O)CNC(=O)[C@H](CCCNC(=N)N)NC(=O)[C@@H]1CCCN1C(=O)[C@H](CCCCN)NC(=O)CNC(=O)[C@H](COP(=O)(O)O)NC(=O)[C@H](CCCNC(=N)N)NC(=O)[C@H](CCCCN)NC(=O)[C@H](CO)NC(=O)[C@H](Cc1ccc(O)cc1)NC(=O)[C@@H](NC(=O)[C@H](CCSC)NC(=O)[C@H](Cc1c[nH]cn1)NC(=O)[C@@H](NC(=O)[C@@H](N)CCCNC(=N)N)[C@@H](C)CC)C(C)C)C(=O)N[C@@H](CCC(=O)O)C(=O)N[C@@H](Cc1ccc(O)cc1)C(=O)O [Compound P140] (H-RIHMVYSKR[pS]GKPRGYAFIEY-OH)
DBA/1 mice; 100 μg CII/mL in cultures, CFSE assay by FACS, peptide i.v. day −1, +7, +14, +20, p=0.0539 between ScP140 and P140
  CD4+ T splenocytes proliferation ex vivo: strongly diminished
DBA/1 mice; same conditions as CD4+ T cells
  CD8+ T cells proliferation ex vivo: No effect
Recombinant bovine HSC70
  Affinity for HSC70 protein, comparison of oxidized and non-oxidized peptide: not statistically different
Recombinant bovine HSC70; 25° C., 1:1 Langmuir model
  KA: 144000 M⁻¹
  Rmax: 83.3 RU
  kd: 0.00312 s⁻¹
Recombinant bovine HSC70; analyte 1.56 μM
  Req: 15.3 RU
  kobs: 0.00382 s⁻¹
Recombinant bovine HSC70; analyte 3.12 μM
  Req: 25.8 RU
  kobs: 0.00452 s⁻¹
Recombinant bovine HSC70; analyte 6.25 μM
  Req: 39.5 RU
  kobs: 0.00593 s⁻¹
Recombinant bovine HSC70; analyte 12.5 μM
  Req: 53.6 RU
  kobs: 0.00874 s⁻¹
Recombinant bovine HSC70; analyte 25 μM
  Req: 65.2 RU
MRL/lpr mice [1]
  Median survival: 29 weeks
C57BL/6 mice; P140 iv at days −2 and −1 vs saline, p=0.0011, reflects decrease of inflammation
  Colon size: significant increase
C57BL/6 mice; P140 iv at days −2 and −1 vs saline, p=0.5386
  DAI: Little difference
C57BL/6 mice; P140 vs saline group, tendency at day +3 and day +4
  Body weight: No difference
C57BL/6 mice; control groups: day +6
  Day blood appeared in the feces: +8 day
Raji cells
  Cellular uptake (flow cytometry): Much less cellular uptake
Balb/c mice; [3]
  Crs, first value, individual mice: 0.0554 mL/cmH2O and 0.0514 mL/cmH2O and 0.0528 mL/cmH2O and 0.0566 mL/cmH2O and 0.0492 mL/cmH2O and 0.0458 mL/cmH2O and 0.0552 mL/cmH2O and 0.0589 mL/cmH2O
  Crs, second value, individual mice: 0.0146 mL/cmH2O and 0.0075 mL/cmH2O and 0.0062 mL/cmH2O and 0.0065 mL/cmH2O and 0.0101 mL/cmH2O and 0.0060 mL/cmH2O and 0.0138 mL/cmH2O and 0.0081 mL/cmH2O
  Ers, first value, individual mice: 18.0582 cmH2O/mL and 19.4433 cmH2O/mL and 18.9515 cmH2O/mL and 17.6781 cmH2O/mL and 20.3326 cmH2O/mL and 21.8367 cmH2O/mL and 18.1106 cmH2O/mL and 16.9723 cmH2O/mL
  Ers, second value, individual mice: 79.8018 cmH2O/mL and 148.4985 cmH2O/mL and 188.1151 cmH2O/mL and 219.9720 cmH2O/mL and 125.7688 cmH2O/mL and 173.4582 cmH2O/mL and 72.6033 cmH2O/mL and 131.8035 cmH2O/mL
  Rrs, first value, individual mice: 0.6405 cmH2O · s/mL and 0.6092 cmH2O · s/mL and 0.7972 cmH2O · s/mL and 0.5185 cmH2O · s/mL and 0.6804 cmH2O · s/mL and 0.6365 cmH2O · s/mL and 0.4744 cmH2O · s/mL and 0.5456 cmH2O · s/mL
  Rrs, second value, individual mice: 5.6421 cmH2O · s/mL and 10.3886 cmH2O · s/mL and 11.9654 cmH2O · s/mL and 10.5419 cmH2O · s/mL and 8.8810 cmH2O · s/mL and 13.0087 cmH2O · s/mL and 7.0705 cmH2O · s/mL and 9.7688 cmH2O · s/mL
Balb/c mice; [4]
  Crs, first value, individual mice: 0.0545 mL/cmH2O and 0.0498 mL/cmH2O and 0.0569 mL/cmH2O and 0.0541 mL/cmH2O and 0.0650 mL/cmH2O
  Crs, second value, individual mice: 0.0304 mL/cmH2O and 0.0132 mL/cmH2O and 0.0380 mL/cmH2O and 0.0238 mL/cmH2O and 0.0370 mL/cmH2O
  Ers, first value, individual mice: 18.3671 cmH2O/mL and 20.0811 cmH2O/mL and 17.5777 cmH2O/mL and 18.4893 cmH2O/mL and 15.3975 cmH2O/mL
  Ers, second value, individual mice: 33.3720 cmH2O/mL and 84.9686 cmH2O/mL and 26.3200 cmH2O/mL and 42.4174 cmH2O/mL and 28.6047 cmH2O/mL
  Rrs, first value, individual mice: 0.5590 cmH2O · s/mL and 0.8945 cmH2O · s/mL and 0.5926 cmH2O · s/mL and 0.8074 cmH2O · s/mL and 0.4418 cmH2O · s/mL
  Rrs, second value, individual mice: 4.1067 cmH2O · s/mL and 9.4002 cmH2O · s/mL and 2.2229 cmH2O · s/mL and 4.0926 cmH2O · s/mL and 2.1844 cmH2O · s/mL
Balb/c mice; allergen (HDM)-challenged mice vs solvent group
  Airway resistance, elastance or compliance: no effect
Balb/c mice; chronic asthma (saline-challenged), methacholine 50 mg/ml, non-significant (n=5)
  Airway resistance, change vs solvent group: −42%
Balb/c mice; [5]
  Airway compliance, change vs solvent group: +115%
  Elastance, change vs solvent group: −65%
Balb/c mice; saline-challenged mice, i.v. 4 mg/kg day 25, vs solvent-treated mice
  Baseline airway resistance, elastance and compliance after PBS inhalation: no effect on any parameter
MRL/lpr mice [2]; 5 days after one single administration, hematoxylin/eosin sections
  Lymphocytic infiltration in the SGs: significantly reduced
MRL/lpr mice [2]; 5 days after one single iv injection
  Total number of cells present in the SGs: no apparent effect
MRL/lpr mice [2]; 5 days after one single iv injection of 100 μg
  Weight of SGs: no statistically significant effect
MRL/lpr mice [2]; [6]
  CD4+T cells in SGs: decreased
  CD8+T cells in SGs: but not CD8+T cells
  Total number of B cells in SGs: no statistically significant effect
